Laboratory results as given in paper PMC10657434, “Architecture of the baculovirus nucleocapsid revealed by cryo-EM” (Nature Communications, 2023).

Biological target: T1, AC101 (BV/ODV-C42) (Autographa californica multiple nucleopolyhedrovirus (AcMNPV)) (UniProt P25695)
T1 sequence: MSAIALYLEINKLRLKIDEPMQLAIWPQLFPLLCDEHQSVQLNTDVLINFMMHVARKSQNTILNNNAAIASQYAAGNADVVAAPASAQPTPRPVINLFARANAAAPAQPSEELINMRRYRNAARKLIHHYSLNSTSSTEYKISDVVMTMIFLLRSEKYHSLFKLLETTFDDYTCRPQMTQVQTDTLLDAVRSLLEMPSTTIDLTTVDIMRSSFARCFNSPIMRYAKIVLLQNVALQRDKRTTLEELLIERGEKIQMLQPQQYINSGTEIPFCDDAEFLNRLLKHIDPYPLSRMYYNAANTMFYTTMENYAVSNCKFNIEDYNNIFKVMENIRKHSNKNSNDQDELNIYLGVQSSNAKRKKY
Experiment: cryo-EM structure; head and base of native AcMNPV ODV nucleocapsids; local refinement 4.3 Å (elements common to both ends), 4.8 Å (base with AC98), 4.9 Å (plug); AlphaFold2 models docked into density and refined; partners co-purified as the native nucleocapsid; both purified

With AC109 the binding was “binds”.

No constants are given. Whether binding was seen depends on the method and setting. In cells and extracts the contact can be indirect. Binding can be weak; no strength is given.
